The data set is described as follows: Penetration of TBBA into timber via vacuum impregnation (uptake). The following applies: aqueous TBBA solution 20.16% w/w; 20x20x20 mm Scots pine sapwood blocks, vacuum impregnated; one value per block.

Where “and” joins values, the source holds several entries; their conditions need not be identical. Equal entries are not always repeated.

On to `CC(C)(c1cc(Br)c(O)c(Br)c1)c1cc(Br)c(O)c(Br)c1` [TBBA, Tetrabromobisphenol A], for which the “TBBA Uptake (mg)” value was 1,369 mg and 1,100 mg and 1,311 mg and 1,115 mg and 1,113 mg and 1,197 mg.

Values taken from patent US20060167115A1, “Compositions for the preservation of timber” (priority 2003, published 2006).
